Reference: patent US12656355B2, “Two phase indicator displacement assay” (The Florida State University Research Foundation, Inc., priority 2022, dated 2026)

Assay: Partitioning indicator displacement assay (PIDA), CTAB/octanol drops with blue 1 dye indicator
Assay type: physicochemical
Conditions: for detection of analyte by PIDA with blue dye as an indicator (specificity): CTAB-blue 1 dye system, 7.5 mM CTAB octanol drops, 10 minutes (FIG. 7B)
Description: The organic drops with fully dissolved indicator were exposed to an aqueous phase containing the target analyte. Over time the target analyte displaced the indicator and partitioned into the organic phase. In this experiment, the sensor had various concentrations of CTAB dissolved into the organic phase and used the maximum saturation ratio of blue dye to CTAB (Mechanism paper) to saturate each organic phase solution with the indicator, blue FCF dye. The displacement of blue dye from the organic phase was measured by monitoring optical transmittance using a color camera.
Five concentrations (60 mM, 30 mM, 15 mM, 7.5 mM, and 3.75 mM) of CTAB in octanol were placed in a tube along with 50 μM of blue dye dissolved in D.I. water, set on a shaker and allowed to equilibrate. An array was made with a sample of each concentration with the blue dye; with 11 drops (replicates) of each concentration and viewed using a DinoLite microscope. Four-hundred μM of aqueous red dye was flowed into the array and a picture was taken before addition of red dye and then every 5 seconds over a 15 minute period. […] Images were analyzed in imageJ, using […] within each replicate and 25 points for background analysis. The replicates were then separated by channel as gray values of the micrographs, and data normalized into absorbance values by subtracting the original dye free data from each replicate. The replicates were averaged per concentration and the data was transferred into percent transmittance using the formula […].
The organic solute cetyltrimethylammonium bromide (CTAB) was purchased from Sigma-Aldrich (St. Louis, USA). Erioglaucine disodium salt (Blue 1) was purchased from Sigma-Aldrich (St. Louis, MO, USA). 10 mL of 6 mM, 3 mM, 1.5 mM, 0.75 mM, and 0.375 mM blue 1 dye dissolved in deionized water and added to separate tubes containing 2 mL of different concentrations of CTAB in octanol (60 mM, 30 mM, 15 mM, 7.5 mM, and 3.75 mM), set on a shaker and allowed to equilibrate. […]
Samples were imaged with a digital microscope (Dino-Lite Pro2 AD-413T or Dino-Lite Edge AM4115ZT) at 100 Å˜ magnification. […] The time dependent partitioning was recorded at one frame per 20 second intervals.
Images were analyzed in imageJ, using 10 points within each replicate and 25 points for background analysis. […] The data was then converted into absorbance using the formula […]. Using the absorbance data, and the measured initial blue dye concentrations, the data was converted to blue dye concentration and then the replicates were averaged per concentration and the standard deviation was calculated. […] The graphs are made from each of the 5 concentrations with their associated normalized absorbance values. […]

SMILES | detection of analyte by PIDA with blue dye as an indicator (specificity) | displacement of the blue dye indicator by analyte (all CTAB concentrations (3.75, 7.5, 15, 30 mM), given enough time)
Nc1ncnc2c1ncn2[C@@H]1O[C@H](COP(=O)([O-])OP(=O)([O-])OP(=O)(O)O)[C@@H](O)[C@H]1O.O.[Na+].[Na+] [ATP, Adenosine 5′-triphosphate disodium salt hydrate] | unable to detect | –
COc1cc(S(=O)(=O)[O-])c(C)cc1N=Nc1c(O)ccc2cc(S(=O)(=O)[O-])ccc12.[Na+].[Na+] [red dye, Allura red AC] | specific | displacement of the blue dye indicator
O=C(O)CC(O)(CC(=O)O)C(=O)O [citric acid] | unable to detect | –
